Reference: the supplement of paper PMC10849652
Some of the results follow.

Sequences of proteins named here, by UniProt entry; tags and fusion partners are left off. A change or cut given only in a name is not applied to a line headed by its entry.
UniProt Q7L2H7, whole entry, looked up: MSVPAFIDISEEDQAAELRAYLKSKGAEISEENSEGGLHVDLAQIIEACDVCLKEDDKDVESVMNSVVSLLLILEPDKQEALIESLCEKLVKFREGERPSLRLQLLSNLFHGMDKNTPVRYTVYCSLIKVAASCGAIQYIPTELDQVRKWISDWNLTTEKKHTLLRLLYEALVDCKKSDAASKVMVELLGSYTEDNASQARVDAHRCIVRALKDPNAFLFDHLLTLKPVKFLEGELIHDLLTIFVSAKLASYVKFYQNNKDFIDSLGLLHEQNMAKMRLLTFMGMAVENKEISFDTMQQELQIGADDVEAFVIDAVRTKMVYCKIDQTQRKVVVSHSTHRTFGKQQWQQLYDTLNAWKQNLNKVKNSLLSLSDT
UniProt O15372, whole entry, looked up: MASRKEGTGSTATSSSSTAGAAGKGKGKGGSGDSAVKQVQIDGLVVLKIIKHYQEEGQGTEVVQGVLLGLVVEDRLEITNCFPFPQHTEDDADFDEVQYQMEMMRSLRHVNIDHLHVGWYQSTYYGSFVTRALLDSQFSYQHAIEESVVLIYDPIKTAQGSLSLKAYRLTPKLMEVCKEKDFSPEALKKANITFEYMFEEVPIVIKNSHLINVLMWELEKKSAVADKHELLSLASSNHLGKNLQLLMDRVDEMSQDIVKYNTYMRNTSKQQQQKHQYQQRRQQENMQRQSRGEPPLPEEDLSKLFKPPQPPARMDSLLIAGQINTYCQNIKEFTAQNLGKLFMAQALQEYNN
UniProt Q8IZ81: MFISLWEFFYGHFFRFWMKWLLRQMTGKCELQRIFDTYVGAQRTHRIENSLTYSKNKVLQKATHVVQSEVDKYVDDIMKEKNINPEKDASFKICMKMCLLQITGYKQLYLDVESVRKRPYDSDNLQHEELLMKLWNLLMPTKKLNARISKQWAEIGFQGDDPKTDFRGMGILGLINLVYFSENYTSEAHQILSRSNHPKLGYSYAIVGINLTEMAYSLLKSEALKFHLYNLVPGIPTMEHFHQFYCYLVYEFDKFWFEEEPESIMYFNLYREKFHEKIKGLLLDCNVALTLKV
UniProt P50402: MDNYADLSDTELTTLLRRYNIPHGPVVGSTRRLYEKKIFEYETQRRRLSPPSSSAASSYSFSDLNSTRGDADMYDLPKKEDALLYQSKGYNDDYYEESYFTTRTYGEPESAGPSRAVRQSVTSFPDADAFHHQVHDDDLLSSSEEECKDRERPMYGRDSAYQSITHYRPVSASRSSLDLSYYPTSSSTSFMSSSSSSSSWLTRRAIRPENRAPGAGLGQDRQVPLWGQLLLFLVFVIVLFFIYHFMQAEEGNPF
UniProt O75822, whole entry, looked up: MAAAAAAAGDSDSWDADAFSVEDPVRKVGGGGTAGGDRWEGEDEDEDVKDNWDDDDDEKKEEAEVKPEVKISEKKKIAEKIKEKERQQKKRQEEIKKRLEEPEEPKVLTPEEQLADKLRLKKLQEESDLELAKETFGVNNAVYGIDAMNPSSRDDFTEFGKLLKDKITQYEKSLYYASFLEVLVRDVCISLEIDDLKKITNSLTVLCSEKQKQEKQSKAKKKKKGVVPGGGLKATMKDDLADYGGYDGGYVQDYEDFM
UniProt Q6IA86: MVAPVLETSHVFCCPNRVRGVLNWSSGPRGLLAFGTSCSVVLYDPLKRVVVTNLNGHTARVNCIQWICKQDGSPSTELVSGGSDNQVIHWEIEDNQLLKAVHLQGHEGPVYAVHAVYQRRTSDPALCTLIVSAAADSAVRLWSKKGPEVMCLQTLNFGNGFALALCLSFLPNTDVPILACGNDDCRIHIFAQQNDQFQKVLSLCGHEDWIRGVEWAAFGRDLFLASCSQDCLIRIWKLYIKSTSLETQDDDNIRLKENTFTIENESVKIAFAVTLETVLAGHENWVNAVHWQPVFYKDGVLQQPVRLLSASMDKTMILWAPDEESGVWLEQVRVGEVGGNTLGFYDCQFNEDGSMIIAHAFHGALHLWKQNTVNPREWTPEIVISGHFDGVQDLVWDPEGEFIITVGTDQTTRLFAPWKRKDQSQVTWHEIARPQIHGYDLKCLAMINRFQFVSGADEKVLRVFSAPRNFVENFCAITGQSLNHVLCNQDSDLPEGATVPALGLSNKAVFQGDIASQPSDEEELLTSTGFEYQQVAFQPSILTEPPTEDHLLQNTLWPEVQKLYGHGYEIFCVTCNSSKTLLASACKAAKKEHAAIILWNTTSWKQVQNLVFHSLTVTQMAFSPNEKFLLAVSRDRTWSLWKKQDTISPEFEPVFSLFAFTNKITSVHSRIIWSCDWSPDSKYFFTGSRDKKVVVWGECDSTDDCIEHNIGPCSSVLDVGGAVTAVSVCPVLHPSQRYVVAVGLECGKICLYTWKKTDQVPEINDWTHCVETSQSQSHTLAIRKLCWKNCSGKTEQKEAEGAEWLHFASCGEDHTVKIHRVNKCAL
UniProt P55010, whole entry, looked up: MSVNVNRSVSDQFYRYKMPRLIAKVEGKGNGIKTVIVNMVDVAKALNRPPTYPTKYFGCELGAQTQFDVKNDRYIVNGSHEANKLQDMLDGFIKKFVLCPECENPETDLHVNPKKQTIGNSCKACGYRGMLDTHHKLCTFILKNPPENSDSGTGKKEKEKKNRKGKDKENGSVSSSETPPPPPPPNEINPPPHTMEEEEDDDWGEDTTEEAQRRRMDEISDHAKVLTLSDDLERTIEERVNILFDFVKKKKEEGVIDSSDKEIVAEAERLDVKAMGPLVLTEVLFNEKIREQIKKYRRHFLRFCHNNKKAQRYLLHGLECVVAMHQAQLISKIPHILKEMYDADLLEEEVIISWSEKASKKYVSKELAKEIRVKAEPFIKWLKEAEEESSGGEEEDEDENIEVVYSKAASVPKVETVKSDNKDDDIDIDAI
UniProt Q92889: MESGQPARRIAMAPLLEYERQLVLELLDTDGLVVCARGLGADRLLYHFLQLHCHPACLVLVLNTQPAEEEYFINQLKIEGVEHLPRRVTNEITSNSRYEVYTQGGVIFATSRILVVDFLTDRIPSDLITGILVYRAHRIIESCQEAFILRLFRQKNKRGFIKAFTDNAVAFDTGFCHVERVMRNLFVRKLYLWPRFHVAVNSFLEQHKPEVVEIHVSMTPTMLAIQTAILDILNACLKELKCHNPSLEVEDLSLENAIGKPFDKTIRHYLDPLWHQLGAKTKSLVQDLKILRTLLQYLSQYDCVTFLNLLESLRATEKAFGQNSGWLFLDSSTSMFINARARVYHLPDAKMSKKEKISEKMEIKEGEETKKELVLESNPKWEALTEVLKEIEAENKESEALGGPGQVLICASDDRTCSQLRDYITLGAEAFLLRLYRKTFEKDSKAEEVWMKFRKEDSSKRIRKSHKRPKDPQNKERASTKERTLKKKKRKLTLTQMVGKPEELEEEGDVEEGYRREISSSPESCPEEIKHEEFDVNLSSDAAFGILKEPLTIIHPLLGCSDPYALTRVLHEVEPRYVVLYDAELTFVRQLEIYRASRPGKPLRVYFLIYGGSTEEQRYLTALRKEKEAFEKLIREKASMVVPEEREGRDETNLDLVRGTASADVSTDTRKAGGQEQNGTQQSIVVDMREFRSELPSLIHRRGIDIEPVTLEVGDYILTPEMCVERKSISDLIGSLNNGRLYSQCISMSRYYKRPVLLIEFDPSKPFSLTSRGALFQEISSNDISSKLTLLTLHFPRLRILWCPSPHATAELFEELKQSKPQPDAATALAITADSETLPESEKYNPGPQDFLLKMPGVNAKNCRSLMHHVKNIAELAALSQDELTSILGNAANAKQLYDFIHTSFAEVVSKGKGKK
UniProt Q9Y262, whole entry, looked up: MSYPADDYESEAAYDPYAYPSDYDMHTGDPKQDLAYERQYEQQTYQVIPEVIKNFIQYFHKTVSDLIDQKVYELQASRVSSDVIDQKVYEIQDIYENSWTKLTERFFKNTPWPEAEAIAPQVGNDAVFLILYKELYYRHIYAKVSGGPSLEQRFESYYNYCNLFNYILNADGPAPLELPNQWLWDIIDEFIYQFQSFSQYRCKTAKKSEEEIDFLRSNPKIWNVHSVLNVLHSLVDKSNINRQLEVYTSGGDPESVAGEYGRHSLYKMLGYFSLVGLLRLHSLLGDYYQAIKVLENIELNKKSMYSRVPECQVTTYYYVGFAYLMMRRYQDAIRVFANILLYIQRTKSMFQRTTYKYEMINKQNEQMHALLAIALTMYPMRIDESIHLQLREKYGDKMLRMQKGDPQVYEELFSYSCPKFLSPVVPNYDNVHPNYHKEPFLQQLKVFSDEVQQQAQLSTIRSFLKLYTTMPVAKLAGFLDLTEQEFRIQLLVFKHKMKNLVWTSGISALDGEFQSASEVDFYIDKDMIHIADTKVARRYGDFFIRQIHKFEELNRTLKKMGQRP
UniProt P07099: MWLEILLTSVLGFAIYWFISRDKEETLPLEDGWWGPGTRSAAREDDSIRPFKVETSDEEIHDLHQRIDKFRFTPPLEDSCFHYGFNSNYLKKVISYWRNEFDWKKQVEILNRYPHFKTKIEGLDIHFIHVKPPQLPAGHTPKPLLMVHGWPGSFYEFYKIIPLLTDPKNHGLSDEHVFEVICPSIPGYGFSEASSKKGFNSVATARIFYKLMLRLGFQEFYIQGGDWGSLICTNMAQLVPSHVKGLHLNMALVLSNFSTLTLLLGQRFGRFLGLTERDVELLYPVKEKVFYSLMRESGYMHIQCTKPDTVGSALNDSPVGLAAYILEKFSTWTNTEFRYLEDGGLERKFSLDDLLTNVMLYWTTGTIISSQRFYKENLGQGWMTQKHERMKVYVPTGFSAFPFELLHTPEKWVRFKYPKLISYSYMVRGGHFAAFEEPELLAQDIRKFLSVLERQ
UniProt O60573: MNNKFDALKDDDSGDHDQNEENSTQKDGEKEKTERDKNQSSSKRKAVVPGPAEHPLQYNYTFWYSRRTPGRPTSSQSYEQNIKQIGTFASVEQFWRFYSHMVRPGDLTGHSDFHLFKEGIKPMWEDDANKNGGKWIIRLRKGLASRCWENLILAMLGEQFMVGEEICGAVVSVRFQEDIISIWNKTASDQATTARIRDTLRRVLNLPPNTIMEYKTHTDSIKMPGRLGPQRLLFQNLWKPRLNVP
UniProt Q13541: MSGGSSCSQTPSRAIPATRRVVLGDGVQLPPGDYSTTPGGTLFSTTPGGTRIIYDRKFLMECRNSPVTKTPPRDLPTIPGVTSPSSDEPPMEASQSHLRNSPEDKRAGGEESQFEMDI
UniProt Q9GZV4: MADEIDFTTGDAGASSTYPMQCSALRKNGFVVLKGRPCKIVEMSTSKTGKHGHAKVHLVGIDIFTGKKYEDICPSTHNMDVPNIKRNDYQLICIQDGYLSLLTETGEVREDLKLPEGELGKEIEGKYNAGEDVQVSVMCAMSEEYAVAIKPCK
UniProt Q7L775: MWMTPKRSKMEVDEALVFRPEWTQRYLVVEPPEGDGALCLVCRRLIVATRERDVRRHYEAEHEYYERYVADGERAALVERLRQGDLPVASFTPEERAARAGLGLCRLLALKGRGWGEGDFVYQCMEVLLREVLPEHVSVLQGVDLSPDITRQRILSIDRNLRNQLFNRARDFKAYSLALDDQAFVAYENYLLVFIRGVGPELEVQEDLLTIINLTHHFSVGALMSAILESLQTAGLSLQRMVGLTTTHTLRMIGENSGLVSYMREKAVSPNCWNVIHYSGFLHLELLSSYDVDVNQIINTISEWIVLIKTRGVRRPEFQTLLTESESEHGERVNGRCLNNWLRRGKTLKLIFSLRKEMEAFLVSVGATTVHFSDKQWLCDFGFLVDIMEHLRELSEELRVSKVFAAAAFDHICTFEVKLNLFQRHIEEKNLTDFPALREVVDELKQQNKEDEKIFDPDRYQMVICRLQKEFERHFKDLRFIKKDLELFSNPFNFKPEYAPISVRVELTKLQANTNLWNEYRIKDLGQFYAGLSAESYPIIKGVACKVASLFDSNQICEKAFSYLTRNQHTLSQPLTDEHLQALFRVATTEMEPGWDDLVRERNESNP

How the values were obtained:
Test in all cases: log2 fold change, soluble protein after heating vs DMSO (PISA); higher = thermal stabilisation; K562 lysate, 10 uM; active = over 0.2 and 3.5 SD of the protein, either way, in both replicates (recomputed)
vemurafenib = compound: CCCS(=O)(=O)Nc1ccc(F)c(C(=O)c2c[nH]c3ncc(-c4ccc(Cl)cc4)cc23)c1F [vemurafenib]
Summary of the method: (§1)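 Quantification was by TMTpro 16plex LC-MS/MS with equalised channel sums, applied to the supernatant after 21,000xg for 90 min. Samples were crude K562 extract at 1 mg/mL protein in PBS pH 7.4 with 1 mM MgCl2, treated with 10 μM compound for 30 min, heated for 3 min across 48°C-58°C, pooled and brought to 0.5% NP-40 at 4°C. Values are log-two fold changes in thermal stability relative to solvent controls, from duplicates.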

[1] = compound: CCCS(=O)(=O)Nc1ccc(F)c(C(=O)c2c[nH]c3ncc(Cl)cc23)c1F
Summary of the method: as §1

barasertib = compound: CCN(CCCOc1ccc2c(Nc3cc(CC(=O)Nc4cccc(F)c4)[nH]n3)ncnc2c1)CCOP(=O)(O)O [barasertib]
Summary of the method: as §1

[2] = compound: CC[C@@H]1C(=O)N(C)c2cnc(Nc3ccc(C(=O)NC4CCN(C)CC4)cc3OC)nc2N1C1CCCC1
Summary of the method: as §1

volasertib = compound: CC[C@@H]1C(=O)N(C)c2cnc(Nc3ccc(C(=O)N[C@H]4CC[C@H](N5CCN(CC6CC6)CC5)CC4)cc3OC)nc2N1C(C)C [volasertib]
Summary of the method: as §1

[3] = compound: CCn1c(C(=O)N(C2CC2)C2CC2)cc2c3c(ncn3C)c(Nc3cc(C)n(C)n3)nc21
Summary of the method: as §1

[4] = compound: CCn1cc(-c2ccnc3[nH]c(-c4cccc(CN(C)C)c4)cc23)c(-c2ccc(NC(=O)N(C)C)cc2)n1
Summary of the method: as §1

[5] = compound: CN1CCC(CNc2ccc3ncc(-c4cccc(OC(F)(F)F)c4)n3n2)CC1
Summary of the method: as §1

saracatinib = compound: CN1CCN(CCOc2cc(OC3CCOCC3)c3c(Nc4c(Cl)ccc5c4OCO5)ncnc3c2)CC1 [saracatinib]
Summary of the method: as §1

sotrastaurin = compound: CN1CCN(c2nc(C3=C(c4c[nH]c5ccccc45)C(=O)NC3=O)c3ccccc3n2)CC1 [sotrastaurin]
Summary of the method: as §1

alvocidib = compound: CN1CC[C@H](c2c(O)cc(O)c3c(=O)cc(-c4ccccc4Cl)oc23)[C@H](O)C1 [alvocidib]
Summary of the method: as §1

Tubastatin A = compound: CN1CCc2c(c3ccccc3n2Cc2ccc(C(=O)NO)cc2)C1 [Tubastatin A]
Summary of the method: as §1

[6] = compound: CNC(=O)C1=CC=CC=C1NC2=NC(=NC=C2Cl)NC3=C(C=C(C=C3)N4CCOCC4)OC
Summary of the method: as §1

defactinib = compound: CNC(=O)c1ccc(Nc2ncc(C(F)(F)F)c(NCc3nccnc3N(C)S(C)(=O)=O)n2)cc1 [defactinib]
Summary of the method: as §1

[7] = compound: CNc1nc(-c2ccc3c(N)n[nH]c3c2)cc(N2C[C@@H](C(=O)NC3CCCCC3)CC[C@H]2C)n1
Summary of the method: as §1

encorafenib = compound: COC(=O)N[C@@H](C)CNc1nccc(-c2cn(C(C)C)nc2-c2cc(Cl)cc(NS(C)(=O)=O)c2F)n1 [encorafenib]
Summary of the method: as §1

[8] = compound: COC(=O)[C@H](CCSC)NC(=O)C1=C(C=C(C=C1)NC[C@H](CS)N)C2=CC=CC=C2
Summary of the method: as §1

alisertib = compound: COc1cc(Nc2ncc3c(n2)-c2ccc(Cl)cc2C(c2c(F)cccc2OC)=NC3)ccc1C(=O)O [alisertib]
Summary of the method: as §1

[9] = compound: COc1cc2nc(-c3cc(F)ccc3O)nc(N[C@@H]3CNC[C@H]3C(C)(C)O)c2cc1OC
Summary of the method: as §1

gefitinib = compound: COc1cc2ncnc(Nc3ccc(F)c(Cl)c3)c2cc1OCCCN1CCOCC1 [gefitinib]
Summary of the method: as §1

Measured: log2 fold change

EIF3M (UniProt Q7L2H7)
inactive: vemurafenib -0.011 | [1] 0.015 | barasertib 0.012 | [2] -0.046 | volasertib -0.013 | [3] -0.003 | [4] 0.151 | [5] -0.018 | saracatinib 0 | sotrastaurin -0.01 | alvocidib 0.07 | Tubastatin A -0.02 | [6] -0.003 | defactinib 0 | [7] 0.029 | encorafenib 0.001 | [8] 0 | alisertib 0.015 | [9] 0.001 | gefitinib -0.044

EIF3H (UniProt O15372)
inactive: vemurafenib 0.011 | [1] 0.003 | barasertib -0.008 | [2] 0.069 | volasertib 0.005 | [3] -0.012 | [4] -0.058 | [5] 0.031 | saracatinib 0.002 | sotrastaurin 0.022 | alvocidib -0.006 | Tubastatin A 0.001 | [6] -0.005 | defactinib 0.009 | [7] 0.006 | encorafenib 0.012 | [8] -0.042 | alisertib -0.005 | [9] 0.001 | gefitinib 0.011

ERC1 (UniProt X6RLX0)
inactive: vemurafenib -0.005 | [1] -0.01 | barasertib 0.001 | [2] 0.037 | volasertib 0 | [3] 0.019 | [4] -0.002 | [5] -0.012 | saracatinib 0.026 | sotrastaurin -0.007 | alvocidib 0.005 | Tubastatin A 0.044 | [6] 0.006 | defactinib -0.005 | [7] 0.026 | encorafenib 0.013 | [8] -0.004 | alisertib -0.008 | [9] 0.002 | gefitinib 0.031

2 successive records from above:
EIF3H (UniProt O15372)
inactive: vemurafenib 0.011 | [1] 0.003 | barasertib -0.008 | [2] 0.069 | volasertib 0.005 | [3] -0.012 | [4] -0.058 | [5] 0.031 | saracatinib 0.002 | sotrastaurin 0.022 | alvocidib -0.006 | Tubastatin A 0.001 | [6] -0.005 | defactinib 0.009 | [7] 0.006 | encorafenib 0.012 | [8] -0.042 | alisertib -0.005 | [9] 0.001 | gefitinib 0.011

ERC1 (UniProt X6RLX0)
inactive: vemurafenib -0.005 | [1] -0.01 | barasertib 0.001 | [2] 0.037 | volasertib 0 | [3] 0.019 | [4] -0.002 | [5] -0.012 | saracatinib 0.026 | sotrastaurin -0.007 | alvocidib 0.005 | Tubastatin A 0.044 | [6] 0.006 | defactinib -0.005 | [7] 0.026 | encorafenib 0.013 | [8] -0.004 | alisertib -0.008 | [9] 0.002 | gefitinib 0.031

Continued:

ELMOD2 (UniProt Q8IZ81)
inactive: vemurafenib 0.011 | [1] 0.003 | barasertib 0.007 | [2] 0.061 | volasertib -0.037 | [3] 0.015 | [4] 0.071 | [5] -0.05 | saracatinib 0.023 | sotrastaurin 0.034 | alvocidib 0.044 | Tubastatin A -0.022 | [6] -0.012 | defactinib 0.039 | [7] -0.052 | encorafenib 0 | [8] -0.042 | alisertib -0.047 | [9] 0.035 | gefitinib 0.014

EIF6 (UniProt P56537)
inactive: vemurafenib 0.062 | [1] 0.003 | barasertib -0.04 | [2] 0.019 | volasertib 0.001 | [3] -0.044 | [4] -0.056 | [5] 0.054 | saracatinib 0.021 | sotrastaurin -0.008 | alvocidib -0.044 | Tubastatin A 0.035 | [6] 0.016 | defactinib -0.057 | [7] 0.019 | encorafenib -0.022 | [8] 0.005 | alisertib -0.012 | [9] 0.009 | gefitinib -0.013

EMD (UniProt P50402)
inactive: vemurafenib 0.022 | [1] 0.003 | barasertib 0.076 | [2] -0.016 | volasertib -0.017 | [3] 0.057 | [4] -0.02 | [5] -0.033 | saracatinib 0.012 | sotrastaurin -0.007 | alvocidib 0.006 | Tubastatin A -0.109 | [6] -0.029 | defactinib -0.02 | [7] 0.028 | encorafenib 0.039 | [8] -0.11 | alisertib -0.008 | [9] -0.011 | gefitinib 0.02

EIF3J (UniProt O75822)
inactive: vemurafenib 0.021 | [1] -0.018 | barasertib -0.017 | [2] 0.05 | volasertib 0.032 | [3] -0.016 | [4] -0.009 | [5] -0.007 | saracatinib -0.002 | sotrastaurin 0.006 | alvocidib -0.017 | Tubastatin A 0.058 | [6] 0.003 | defactinib -0.071 | [7] 0.055 | encorafenib -0.021 | [8] -0.014 | alisertib -0.001 | [9] 0.016 | gefitinib -0.032

ELP2 isoform 6 (UniProt Q6IA86)
inactive: vemurafenib -0.022 | [1] 0.011 | barasertib 0.008 | [2] -0.007 | volasertib -0.007 | [3] -0.021 | [4] -0.097 | [5] 0.027 | saracatinib 0.007 | sotrastaurin 0.021 | alvocidib -0.038 | Tubastatin A -0.019 | [6] 0.008 | defactinib 0.008 | [7] -0.064 | encorafenib 0.037 | [8] -0.003 | alisertib -0.009 | [9] 0.002 | gefitinib -0.005

EIF5 (UniProt P55010)
inactive: vemurafenib -0.05 | [1] 0.005 | barasertib -0.018 | [2] 0 | volasertib -0.003 | [3] 0.005 | [4] 0.072 | [5] -0.002 | saracatinib 0.005 | sotrastaurin -0.016 | alvocidib 0.017 | Tubastatin A 0.059 | [6] -0.012 | defactinib 0.002 | [7] 0.012 | encorafenib -0.018 | [8] -0.025 | alisertib 0.008 | [9] -0.004 | gefitinib -0.003

ERCC4 (UniProt Q92889)
inactive: vemurafenib 0.071 | [1] 0.01 | barasertib 0.163 | [2] 0.144 | volasertib -0.006 | [3] 0.004 | [4] -0.078 | [5] 0.114 | saracatinib 0.016 | sotrastaurin 0.047 | alvocidib -0.268 | Tubastatin A -0.021 | [6] 0.058 | defactinib 0.101 | [7] -0.029 | encorafenib -0.065 | [8] -0.001 | alisertib 0.047 | [9] 0.024 | gefitinib 0.044

EIF3L (UniProt Q9Y262)
inactive: vemurafenib 0.018 | [1] -0.005 | barasertib -0.006 | [2] -0.041 | volasertib -0.023 | [3] -0.004 | [4] -0.031 | [5] -0.016 | saracatinib 0.005 | sotrastaurin 0.005 | alvocidib 0.036 | Tubastatin A 0.017 | [6] -0.008 | defactinib -0.008 | [7] -0.013 | encorafenib -0.019 | [8] 0.032 | alisertib 0.018 | [9] -0.002 | gefitinib -0.03

EPHX1 (UniProt P07099)
inactive: vemurafenib -0.016 | [1] 0.021 | barasertib 0.023 | [2] 0.005 | volasertib 0.01 | [3] -0.017 | [4] -0.02 | [5] 0.063 | saracatinib 0.006 | sotrastaurin 0.025 | alvocidib -0.012 | Tubastatin A -0.006 | [6] 0.019 | defactinib 0.041 | [7] -0.155 | encorafenib 0.085 | [8] -0.074 | alisertib -0.02 | [9] -0.002 | gefitinib 0

EIF4E2 (UniProt O60573)
inactive: vemurafenib 0.038 | [1] 0.004 | barasertib 0.009 | [2] -0.035 | volasertib -0.008 | [3] 0.031 | [4] -0.062 | [5] -0.017 | saracatinib 0.061 | sotrastaurin 0.007 | alvocidib -0.051 | Tubastatin A -0.182 | [6] 0.037 | defactinib 0.025 | [7] -0.028 | encorafenib 0.104 | [8] -0.014 | alisertib 0.055 | [9] 0.025 | gefitinib -0.05

EIF4EBP1 (UniProt Q13541)
inactive: vemurafenib -0.048 | [1] -0.02 | barasertib 0.114 | [2] -0.004 | volasertib 0.048 | [3] -0.055 | [4] -0.001 | [5] -0.122 | saracatinib -0.026 | sotrastaurin 0.047 | alvocidib 0.101 | Tubastatin A 0.12 | [6] 0.046 | defactinib 0.079 | [7] 0.029 | encorafenib 0.023 | [8] -0.005 | alisertib 0.065 | [9] -0.005 | gefitinib -0.054

EIF5A2 (UniProt Q9GZV4)
inactive: vemurafenib 0.161 | [1] 0.002 | barasertib -0.001 | [2] 0.02 | volasertib -0.049 | [3] -0.073 | [4] -0.32 | [5] 0.101 | saracatinib -0.012 | sotrastaurin 0.04 | alvocidib -0.043 | Tubastatin A 0.048 | [6] 0.027 | defactinib -0.038 | [7] -0.04 | encorafenib -0.021 | [8] -0.023 | alisertib -0.042 | [9] -0.028 | gefitinib -0.128

EPM2AIP1 (UniProt Q7L775)
inactive: vemurafenib -0.014 | [1] -0.017 | barasertib 0.008 | [2] -0.076 | volasertib 0.021 | [3] 0.009 | [4] -0.039 | [5] 0.018 | saracatinib -0.004 | sotrastaurin 0.03 | alvocidib 0.017 | Tubastatin A -0.006 | [6] 0.053 | defactinib -0.019 | [7] 0.002 | encorafenib 0.002 | [8] -0.004 | alisertib 0.03 | [9] -0.021 | gefitinib 0.013
